This is one part of the list. Most values lie at the level of the controls, where differences are scatter.

Protein sequences, listed by entry. Tags and fused reporters are not part of them. Lines headed by an entry give the natural chain unless they say otherwise; changes in a name come on top.
UniProt Q8NHZ8, whole entry: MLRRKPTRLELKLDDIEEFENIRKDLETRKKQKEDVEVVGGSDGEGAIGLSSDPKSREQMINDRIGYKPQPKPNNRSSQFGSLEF
UniProt Q8N264: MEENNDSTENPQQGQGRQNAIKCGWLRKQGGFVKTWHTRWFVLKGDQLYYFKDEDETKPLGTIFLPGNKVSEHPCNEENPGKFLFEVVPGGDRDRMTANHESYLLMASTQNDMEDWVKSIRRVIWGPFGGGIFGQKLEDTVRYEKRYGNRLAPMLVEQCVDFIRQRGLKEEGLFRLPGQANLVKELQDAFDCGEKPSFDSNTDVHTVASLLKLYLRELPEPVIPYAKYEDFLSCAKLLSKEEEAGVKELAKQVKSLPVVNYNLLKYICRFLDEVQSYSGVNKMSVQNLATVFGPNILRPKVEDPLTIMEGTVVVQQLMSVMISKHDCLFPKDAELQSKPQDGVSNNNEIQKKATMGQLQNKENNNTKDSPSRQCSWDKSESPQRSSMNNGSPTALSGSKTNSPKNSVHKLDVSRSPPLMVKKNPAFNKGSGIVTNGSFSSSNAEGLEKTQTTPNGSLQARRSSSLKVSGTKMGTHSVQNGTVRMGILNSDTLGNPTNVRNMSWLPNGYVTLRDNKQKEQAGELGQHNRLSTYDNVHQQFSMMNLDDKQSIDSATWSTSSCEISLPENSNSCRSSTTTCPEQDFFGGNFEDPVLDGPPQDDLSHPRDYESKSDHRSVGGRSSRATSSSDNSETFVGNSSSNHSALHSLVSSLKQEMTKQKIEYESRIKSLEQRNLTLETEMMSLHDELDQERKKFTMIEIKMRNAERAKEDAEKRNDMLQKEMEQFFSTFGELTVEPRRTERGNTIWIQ
UniProt Q8NAV1: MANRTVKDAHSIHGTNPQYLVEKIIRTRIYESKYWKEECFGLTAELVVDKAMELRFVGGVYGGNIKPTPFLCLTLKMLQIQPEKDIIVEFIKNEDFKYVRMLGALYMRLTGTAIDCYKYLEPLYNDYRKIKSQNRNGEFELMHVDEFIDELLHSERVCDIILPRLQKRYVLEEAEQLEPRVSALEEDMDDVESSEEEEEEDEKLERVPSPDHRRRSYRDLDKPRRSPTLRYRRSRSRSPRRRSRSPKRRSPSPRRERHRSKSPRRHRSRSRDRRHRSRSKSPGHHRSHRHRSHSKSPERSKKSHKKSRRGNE
UniProt Q8N8R7: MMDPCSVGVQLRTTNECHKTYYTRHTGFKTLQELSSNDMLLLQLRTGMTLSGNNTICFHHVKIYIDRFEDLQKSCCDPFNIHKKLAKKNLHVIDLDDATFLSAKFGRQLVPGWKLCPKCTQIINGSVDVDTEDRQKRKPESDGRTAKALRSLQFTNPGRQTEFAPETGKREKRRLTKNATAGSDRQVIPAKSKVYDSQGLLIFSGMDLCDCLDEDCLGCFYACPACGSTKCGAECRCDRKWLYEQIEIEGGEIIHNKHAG
UniProt Q8NEV8: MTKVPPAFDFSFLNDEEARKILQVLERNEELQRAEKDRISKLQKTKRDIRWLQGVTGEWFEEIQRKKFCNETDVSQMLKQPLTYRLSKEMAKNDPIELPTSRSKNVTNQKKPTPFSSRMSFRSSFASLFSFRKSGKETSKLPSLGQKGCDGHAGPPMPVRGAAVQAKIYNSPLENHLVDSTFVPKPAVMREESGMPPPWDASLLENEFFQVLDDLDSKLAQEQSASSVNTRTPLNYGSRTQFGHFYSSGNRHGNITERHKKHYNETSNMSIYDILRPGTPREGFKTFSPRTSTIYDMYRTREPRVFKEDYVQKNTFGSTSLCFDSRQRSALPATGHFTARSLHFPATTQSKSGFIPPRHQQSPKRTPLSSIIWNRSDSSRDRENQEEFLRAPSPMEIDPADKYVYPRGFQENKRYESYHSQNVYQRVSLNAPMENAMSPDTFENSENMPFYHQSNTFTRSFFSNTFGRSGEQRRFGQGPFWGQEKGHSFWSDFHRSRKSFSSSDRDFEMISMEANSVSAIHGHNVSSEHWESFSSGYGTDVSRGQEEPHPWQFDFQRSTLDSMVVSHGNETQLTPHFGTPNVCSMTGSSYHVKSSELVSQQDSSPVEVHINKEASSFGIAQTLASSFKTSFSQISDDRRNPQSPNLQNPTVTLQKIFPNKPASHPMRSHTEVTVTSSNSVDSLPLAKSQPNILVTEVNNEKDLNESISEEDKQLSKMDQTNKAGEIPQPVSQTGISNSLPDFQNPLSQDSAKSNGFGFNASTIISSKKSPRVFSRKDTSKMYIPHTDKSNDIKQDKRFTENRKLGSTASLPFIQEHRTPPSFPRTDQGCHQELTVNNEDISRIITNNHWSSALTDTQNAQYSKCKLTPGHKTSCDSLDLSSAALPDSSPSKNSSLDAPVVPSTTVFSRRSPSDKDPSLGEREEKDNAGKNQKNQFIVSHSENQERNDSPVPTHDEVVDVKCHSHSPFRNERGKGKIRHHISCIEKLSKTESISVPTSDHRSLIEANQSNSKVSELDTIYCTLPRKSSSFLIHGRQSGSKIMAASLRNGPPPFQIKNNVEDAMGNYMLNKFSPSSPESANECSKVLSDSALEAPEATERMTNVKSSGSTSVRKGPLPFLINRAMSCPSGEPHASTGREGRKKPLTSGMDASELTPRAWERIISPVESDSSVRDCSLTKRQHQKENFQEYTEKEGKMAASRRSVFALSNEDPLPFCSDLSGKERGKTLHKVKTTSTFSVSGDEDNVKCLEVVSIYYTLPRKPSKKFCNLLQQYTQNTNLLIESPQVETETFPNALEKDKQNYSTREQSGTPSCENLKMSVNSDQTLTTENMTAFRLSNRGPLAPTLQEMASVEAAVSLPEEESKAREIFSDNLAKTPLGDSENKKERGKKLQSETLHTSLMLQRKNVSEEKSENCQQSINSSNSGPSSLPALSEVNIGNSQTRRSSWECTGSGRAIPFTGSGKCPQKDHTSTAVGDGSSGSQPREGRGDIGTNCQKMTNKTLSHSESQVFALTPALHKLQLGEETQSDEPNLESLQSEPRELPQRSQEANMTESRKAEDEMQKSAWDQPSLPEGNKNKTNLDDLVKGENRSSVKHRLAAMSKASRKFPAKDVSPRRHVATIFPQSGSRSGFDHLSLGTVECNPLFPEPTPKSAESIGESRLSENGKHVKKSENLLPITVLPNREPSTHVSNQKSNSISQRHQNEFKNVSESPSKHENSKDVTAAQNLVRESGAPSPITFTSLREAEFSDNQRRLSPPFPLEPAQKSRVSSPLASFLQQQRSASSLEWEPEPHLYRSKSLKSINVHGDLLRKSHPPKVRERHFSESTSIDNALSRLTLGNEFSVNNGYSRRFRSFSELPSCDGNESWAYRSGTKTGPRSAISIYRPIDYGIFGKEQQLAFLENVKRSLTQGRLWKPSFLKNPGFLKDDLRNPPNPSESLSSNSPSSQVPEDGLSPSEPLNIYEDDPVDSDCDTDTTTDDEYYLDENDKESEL
UniProt Q8NEC7: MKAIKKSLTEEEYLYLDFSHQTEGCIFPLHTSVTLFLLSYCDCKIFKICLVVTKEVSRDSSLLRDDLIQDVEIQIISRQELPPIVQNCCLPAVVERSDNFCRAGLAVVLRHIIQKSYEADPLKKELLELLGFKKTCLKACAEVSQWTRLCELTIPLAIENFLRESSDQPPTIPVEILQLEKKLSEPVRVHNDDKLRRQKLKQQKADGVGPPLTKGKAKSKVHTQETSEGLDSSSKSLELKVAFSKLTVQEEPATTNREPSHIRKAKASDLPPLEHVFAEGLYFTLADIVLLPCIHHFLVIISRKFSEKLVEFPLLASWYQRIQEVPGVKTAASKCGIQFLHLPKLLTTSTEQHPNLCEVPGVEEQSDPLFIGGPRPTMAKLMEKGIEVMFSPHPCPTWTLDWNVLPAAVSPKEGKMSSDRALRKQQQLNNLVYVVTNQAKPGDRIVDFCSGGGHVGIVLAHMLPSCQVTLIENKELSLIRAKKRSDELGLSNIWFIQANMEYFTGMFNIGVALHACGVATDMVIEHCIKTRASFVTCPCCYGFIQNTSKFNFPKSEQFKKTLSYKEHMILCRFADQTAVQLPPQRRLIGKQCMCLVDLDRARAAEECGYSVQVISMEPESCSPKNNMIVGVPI
UniProt Q8NBZ0, whole entry: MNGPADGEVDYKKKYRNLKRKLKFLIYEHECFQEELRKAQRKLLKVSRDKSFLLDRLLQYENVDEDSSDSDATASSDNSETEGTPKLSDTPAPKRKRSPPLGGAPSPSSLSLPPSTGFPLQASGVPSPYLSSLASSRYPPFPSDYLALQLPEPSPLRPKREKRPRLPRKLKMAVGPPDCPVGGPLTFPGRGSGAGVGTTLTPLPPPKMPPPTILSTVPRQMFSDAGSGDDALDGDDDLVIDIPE
UniProt Q8N7R7: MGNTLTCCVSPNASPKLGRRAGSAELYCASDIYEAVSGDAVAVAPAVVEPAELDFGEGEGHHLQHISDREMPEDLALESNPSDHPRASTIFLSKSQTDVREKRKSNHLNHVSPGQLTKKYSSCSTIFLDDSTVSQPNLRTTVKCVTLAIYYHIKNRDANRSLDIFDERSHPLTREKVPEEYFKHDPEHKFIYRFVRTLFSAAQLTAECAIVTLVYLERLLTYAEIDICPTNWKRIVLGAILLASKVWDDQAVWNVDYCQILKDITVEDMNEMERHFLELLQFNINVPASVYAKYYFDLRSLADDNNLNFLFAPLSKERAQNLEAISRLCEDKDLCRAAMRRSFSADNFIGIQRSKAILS
UniProt Q8N2Z9: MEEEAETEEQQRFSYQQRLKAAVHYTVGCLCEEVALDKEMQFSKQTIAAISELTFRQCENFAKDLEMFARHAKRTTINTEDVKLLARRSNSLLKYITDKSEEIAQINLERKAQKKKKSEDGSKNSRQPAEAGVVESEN
UniProt Q8NFQ8: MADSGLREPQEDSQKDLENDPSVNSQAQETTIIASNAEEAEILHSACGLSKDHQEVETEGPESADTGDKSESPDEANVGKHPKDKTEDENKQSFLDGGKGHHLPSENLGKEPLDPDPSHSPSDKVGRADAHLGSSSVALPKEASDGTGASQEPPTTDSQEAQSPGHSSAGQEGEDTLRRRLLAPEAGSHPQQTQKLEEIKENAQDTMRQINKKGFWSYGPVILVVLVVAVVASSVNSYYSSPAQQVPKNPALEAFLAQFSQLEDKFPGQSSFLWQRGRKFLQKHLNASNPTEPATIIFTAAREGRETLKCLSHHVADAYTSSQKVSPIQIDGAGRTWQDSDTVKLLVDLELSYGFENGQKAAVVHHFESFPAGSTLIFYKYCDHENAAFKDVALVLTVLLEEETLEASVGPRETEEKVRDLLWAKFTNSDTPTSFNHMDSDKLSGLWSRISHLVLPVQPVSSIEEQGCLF
UniProt Q8NEP9: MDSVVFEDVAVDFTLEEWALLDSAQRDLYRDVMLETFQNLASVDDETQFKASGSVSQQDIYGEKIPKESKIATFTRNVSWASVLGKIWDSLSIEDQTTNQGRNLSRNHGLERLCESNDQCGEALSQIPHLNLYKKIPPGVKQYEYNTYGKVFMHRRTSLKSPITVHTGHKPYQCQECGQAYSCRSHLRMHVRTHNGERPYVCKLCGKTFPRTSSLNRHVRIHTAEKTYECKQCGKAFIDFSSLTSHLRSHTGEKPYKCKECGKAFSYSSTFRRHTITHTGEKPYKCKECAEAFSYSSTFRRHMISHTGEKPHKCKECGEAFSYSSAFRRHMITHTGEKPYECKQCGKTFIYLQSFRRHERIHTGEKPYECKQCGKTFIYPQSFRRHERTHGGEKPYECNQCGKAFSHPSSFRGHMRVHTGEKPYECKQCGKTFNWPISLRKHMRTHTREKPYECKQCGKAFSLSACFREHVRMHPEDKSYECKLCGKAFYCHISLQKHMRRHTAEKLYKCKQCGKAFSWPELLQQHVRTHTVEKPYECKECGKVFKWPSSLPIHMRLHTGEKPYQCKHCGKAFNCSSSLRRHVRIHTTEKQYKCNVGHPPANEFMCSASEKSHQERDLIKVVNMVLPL
UniProt Q8N1B4: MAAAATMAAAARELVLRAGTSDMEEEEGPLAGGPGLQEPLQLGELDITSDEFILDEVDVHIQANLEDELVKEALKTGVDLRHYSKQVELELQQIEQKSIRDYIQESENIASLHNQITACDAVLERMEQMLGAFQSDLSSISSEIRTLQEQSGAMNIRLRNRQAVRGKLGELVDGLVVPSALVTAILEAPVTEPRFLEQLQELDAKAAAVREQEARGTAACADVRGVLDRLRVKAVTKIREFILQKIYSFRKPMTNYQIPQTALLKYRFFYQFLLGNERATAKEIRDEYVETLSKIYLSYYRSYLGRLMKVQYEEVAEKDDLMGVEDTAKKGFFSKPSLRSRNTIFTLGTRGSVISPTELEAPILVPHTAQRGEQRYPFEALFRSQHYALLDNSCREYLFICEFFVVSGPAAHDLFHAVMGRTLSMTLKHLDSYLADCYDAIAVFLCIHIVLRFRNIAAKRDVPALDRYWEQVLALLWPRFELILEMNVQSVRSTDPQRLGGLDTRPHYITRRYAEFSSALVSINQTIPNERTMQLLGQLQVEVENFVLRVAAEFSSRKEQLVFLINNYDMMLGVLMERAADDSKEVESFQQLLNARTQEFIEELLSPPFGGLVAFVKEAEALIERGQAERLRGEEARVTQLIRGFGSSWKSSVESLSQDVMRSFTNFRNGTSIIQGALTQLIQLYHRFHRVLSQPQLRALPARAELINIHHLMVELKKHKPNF

Compound in the test: Cc1nc(Nc2ncc(C(=O)Nc3c(C)cccc3Cl)s2)cc(N2CCN(CCO)CC2)n1 [dasatinib]
The experiment in a line: log2 fold change of tryptic peptide abundance, ligand vs vehicle (limited proteolysis) (log2 ratio); higher = more trypsin-susceptible (destabilized). The following applies: ligand concentration: 5 uM; sample: K562 cleared lysate.
Take “CDC26 (peptide sequence: LDDIEEFENIRK, peptide start residue: 13) (UniProt Q8NHZ8)”: the log2 fold change was -0.133. As for “KRI1 (peptide sequence: DATFYNR, peptide start residue: 84) (UniProt Q8N9T8)”, the figure is 0.2; as for “MRPL50 (peptide sequence: EKEPVVVETVEEK, peptide start residue: 33) (UniProt Q8N5N7)”, -0.191; as for “VPS8 (peptide sequence: FSYIDMDKELEFK, peptide start residue: 36) (UniProt Q8N3P4)”, 0.222. Consider “ARHGAP24 (peptide sequence: QKIEYESR, peptide start residue: 658) (UniProt Q8N264)”, for which the log2 fold change is -0.632. As to “MPP5 (peptide sequence: EGKNPKPEELR, peptide start residue: 612) (UniProt Q8N3R9)”, the log2 fold change is -0.33. Next, “PRPF38A (peptide sequence: DAHSIHGTNPQYLVEK, peptide start residue: 8) (UniProt Q8NAV1)”: -0.25; “UniProt Q8N7K0 (peptide sequence: DVMQETFR, peptide start residue: 40)”: 0.102.

In the case of “IQUB (peptide sequence: QYAMQRPNDDSLAFLDKIK, peptide start residue: 98) (UniProt Q8NA54)”, the log2 fold change is -0.0669.

“UniProt Q8NB37 (peptide sequence: LPLVVEDFVK, peptide start residue: 165)”: the log2 fold change is -0.065. “OTUD6B (peptide sequence: KQLTEDVAKLEK, peptide start residue: 46) (UniProt Q8N6M0)”: the log2 fold change came out at 0.294. Next, “UniProt Q8N8R7 (peptide sequence: SCCDPFNIHKK, peptide start residue: 74)”: -0.0617; “UniProt Q8NEV8 (peptide sequence: MYIPHTDKSNDIK, peptide start residue: 781)”: -0.634; “UniProt Q8N6R0 (peptide sequence: KAVGHFSR, peptide start residue: 169)”: 0.49. “ZNF485 (peptide sequence: EAPSGTHAVEDYWFETK, peptide start residue: 75) (UniProt Q8NCK3)”: the log2 fold change was determined as 0.216. Consider “ABCF1 (peptide sequence: KLSVPTSDEEDEVPAPKPR, peptide start residue: 103) (UniProt Q8NE71)”, for which the log2 fold change was -0.547.

For the target “CCNY (peptide sequence: SLFINHHPPGQIAR, peptide start residue: 83) (UniProt Q8ND76)”, the log2 fold change was -0.174. Turning to “HDDC3 (peptide sequence: RLQVEQAPHSSPGAK, peptide start residue: 102) (UniProt Q8N4P3)”, the log2 fold change is 0.347. For the target “GSTCD (peptide sequence: FADQTAVQLPPQRR, peptide start residue: 573) (UniProt Q8NEC7)”, the log2 fold change was found to be 0.174. In the case of “ARFGAP2 (peptide sequence: AAEPNKTEIQTLFKR, peptide start residue: 2) (UniProt Q8N6H7)”, the log2 fold change is -0.158. For “INO80E (peptide sequence: MPPPTILSTVPR, peptide start residue: 208) (UniProt Q8NBZ0)”, the log2 fold change is 0.135. As for “ZCCHC24 (peptide sequence: KRCFGEYK, peptide start residue: 164) (UniProt Q8N2G6)”, the log2 fold change worked out at 0.359. Consider “HJURP (peptide sequence: YQTEGFLGK, peptide start residue: 618) (UniProt Q8NCD3)”, for which the log2 fold change was -0.125. Next, “FBXO22 (peptide sequence: IVTGNFILR, peptide start residue: 368) (UniProt Q8NEZ5)”: -0.0859. As to “LINS1 (peptide sequence: EIQDAAGTSR, peptide start residue: 659) (UniProt Q8NG48)”, the log2 fold change was -0.448. Regarding “EHBP1L1 (peptide sequence: ETQAQACPQEGTEAHGAR, peptide start residue: 340) (UniProt Q8N3D4)”, the log2 fold change turned out to be 0.274. On to “CCNYL1 (peptide sequence: ASTIFLSK, peptide start residue: 65) (UniProt Q8N7R7)”, for which the log2 fold change was 0.105. As for “UniProt Q8N2Z9 (peptide sequence: TTINTEDVK, peptide start residue: 75)”, the log2 fold change is -0.384.

As to “PSD4 (peptide sequence: EAGEAPKPGEEVK, peptide start residue: 507) (UniProt Q8NDX1)”, the log2 fold change amounted to 0.176. “UniProt Q8NDW4 (peptide sequence: KILREYK, peptide start residue: 322)”: the log2 fold change stood at 0.157. For the target “TOR1AIP2 (peptide sequence: ADAHLGSSSVALPK, peptide start residue: 128) (UniProt Q8NFQ8)”, the log2 fold change was -0.146. As to “UniProt Q8NDF8 (peptide sequence: DFLPLETTNNNNNHHQPGAWAR, peptide start residue: 20)”, the log2 fold change was 0.331. Next, “JAGN1 (peptide sequence: AAGTDGSDFQHR, peptide start residue: 9) (UniProt Q8N5M9)”: 0.137; “FANCB (peptide sequence: VTLTPDSK, peptide start residue: 552) (UniProt Q8NB91)”: -0.286. For the target “STK11IP (peptide sequence: FSYICPDR, peptide start residue: 618) (UniProt Q8N1F8)”, the log2 fold change was -0.392. Turning to “UniProt Q8NEP9 (peptide sequence: ASGSVSQQDIYGEKIPK, peptide start residue: 51)”, the log2 fold change is -0.268. Next, “VPS52 (peptide sequence: EIRDEYVETLSK, peptide start residue: 283) (UniProt Q8N1B4)”: 0.0926.

The record behind these values is the supplement of paper PMC12819154, “High-throughput peptide-centric local stability assay extends protein–ligand identification to membrane proteins, tissues and bacteria” (Nature Structural & Molecular Biology, 2025).
